Measured values published in publication PMC9105187.
These are yes or no findings as the source states them, for the method shown. In cells and extracts the contact can be indirect. Here binding means that the protein was enriched with, or labelled near, the bait; the list need not be complete.

Chains of the proteins cited; added tags and fusions are not shown.
UniProt Q12983: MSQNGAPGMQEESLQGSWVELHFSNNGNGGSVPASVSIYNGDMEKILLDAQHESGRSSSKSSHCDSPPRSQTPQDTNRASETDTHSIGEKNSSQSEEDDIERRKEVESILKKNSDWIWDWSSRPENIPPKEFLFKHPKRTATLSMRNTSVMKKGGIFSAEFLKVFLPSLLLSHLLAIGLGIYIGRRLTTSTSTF

B1: 28S ribosomal protein MRPS36 (human) (protein, UniProt P82909 1-103)
chain: MMGSKMASASRVVQVVKPHTPLIRFPDRRDNPKPNVSEALRSAGLPSHSSVISQHSKGSKSPDLLMYQGPPDTAEIIKTLPQKYRRKLVSQEEMEFIQRGGPE
B2: SAMM50 (human) (protein, UniProt Q9Y512 1-469)
chain: MGTVHARSLEPLPSSGPDFGGLGEEAEFVEVEPEAKQEILENKDVVVQHVHFDGLGRTKDDIIICEIGDVFKAKNLIEVMRKSHEAREKLLRLGIFRQVDVLIDTCQGDDALPNGLDVTFEVTELRRLTGSYNTMVGNNEGSMVLGLKLPNLLGRAEKVTFQFSYGTKETSYGLSFFKPRPGNFERNFSVNLYKVTGQFPWSSLRETDRGMSAEYSFPIWKTSHTVKWEGVWRELGCLSRTASFAVRKESGHSLKSSLSHAMVIDSRNSSILPRRGALLKVNQELAGYTGGDVSFIKEDFELQLNKQLIFDSVFSASFWGGMLVPIGDKPSSIADRFYLGGPTSIRGFSMHSIGPQSEGDYLGGEAYWAGGLHLYTPLPFRPGQGGFGELFRTHFFLNAGNLCNLNYGEGPKAHIRKLAECIRWSYGAGIVLRLGNIARLELNYCVPMGVQTGDRICDGVQFGAGIRFL
B3: mt-phosphate carrier protein (human) (protein, UniProt Q00325 50-362)
chain: AVEEQYSCDYGSGRFFILCGLGGIISCGTTHTALVPLDLVKCRMQVDPQKYKGIFNGFSVTLKEDGVRGLAKGWAPTFLGYSMQGLCKFGFYEVFKVLYSNMLGEENTYLWRTSLYLAASASAEFFADIALAPMEAAKVRIQTQPGYANTLRDAAPKMYKEEGLKAFYKGVAPLWMRQIPYTMMKFACFERTVEALYKFVVPKPRSECSKPEQLVVTFVAGYIAGVFCAIVSHPADSVVSVLNKEKGSSASLVLKRLGFKGVWKGLFARIIMIGTLTALQWFIYDSVKVYFRLPRPPPPEMPESLKKKLGLTQ
B4: mt-Lon protease homolog (human) (protein, UniProt P36776 68-959)
chain: FWEASSRGGGAFSGGEDASEGGAEEGAGGAGGSAGAGEGPVITALTPMTIPDVFPHLPLIAITRNPVFPRFIKIIEVKNKKLVELLRRKVRLAQPYVGVFLKRDDSNESDVVESLDEIYHTGTFAQIHEMQDLGDKLRMIVMGHRRVHISRQLEVEPEEPEAENKHKPRRKSKRGKKEAEDELSARHPAELAMEPTPELPAEVLMVEVENVVHEDFQVTEEVKALTAEIVKTIRDIIALNPLYRESVLQMMQAGQRVVDNPIYLSDMGAALTGAESHELQDVLEETNIPKRLYKALSLLKKEFELSKLQQRLGREVEEKIKQTHRKYLLQEQLKIIKKELGLEKDDKDAIEEKFRERLKELVVPKHVMDVVDEELSKLGLLDNHSSEFNVTRNYLDWLTSIPWGKYSNENLDLARAQAVLEEDHYGMEDVKKRILEFIAVSQLRGSTQGKILCFYGPPGVGKTSIARSIARALNREYFRFSVGGMTDVAEIKGHRRTYVGAMPGKIIQCLKKTKTENPLILIDEVDKIGRGYQGDPSSALLELLDPEQNANFLDHYLDVPVDLSKVLFICTANVTDTIPEPLRDRMEMINVSGYVAQEKLAIAERYLVPQARALCGLDESKAKLSSDVLTLLIKQYCRESGVRNLQKQVEKVLRKSAYKIVSGEAESVEVTPENLQDFVGKPVFTVERMYDVTPPGVVMGLAWTAMGGSTLFVETSLRRPQDKDAKGDKDGSLEVTGQLGEVMKESARIAYTFARAFLMQHAPANDYLVTSHIHLHVPEGATPKDGPSAGCTIVTALLSLAMGRPVRQNLAMTGEVSLTGKILPVGGIKEKTIAAKRAGVTCIVLPAENKKDFYDLAAFITEGLEVHFVEHYREIFDIAFPDEQAEALAVER

What follows are binders tested against Bcl-2 nineteen kilodalton interacting protein 3 (human) (human (endogenous in LV myocardium)) (UniProt Q12983) (assay: affinity purification with mass spectrometry; 500 ug lysate of human HFrEF LV myocardium (n = 3, taken at LVAD implantation) incubated with 10 ug mouse monoclonal BNIP3 antibody (Abcam ab10433); eluate on SDS-PAGE, in-gel trypsin digestion, nano-LC-MS/MS).

binding | Binder
binds | B1
binds | B2
binds | B3
binds | B4
